Experimental data as given in PMC12504744.
These are yes or no findings as the source states them, for the method shown. Binding seen in cells or lysates may run through a third protein. Some results given as binding are weak or reduced against the parent protein; the word gives no strength.

Amino acid sequences for entries named in this document (tags omitted).
UniProt P19785: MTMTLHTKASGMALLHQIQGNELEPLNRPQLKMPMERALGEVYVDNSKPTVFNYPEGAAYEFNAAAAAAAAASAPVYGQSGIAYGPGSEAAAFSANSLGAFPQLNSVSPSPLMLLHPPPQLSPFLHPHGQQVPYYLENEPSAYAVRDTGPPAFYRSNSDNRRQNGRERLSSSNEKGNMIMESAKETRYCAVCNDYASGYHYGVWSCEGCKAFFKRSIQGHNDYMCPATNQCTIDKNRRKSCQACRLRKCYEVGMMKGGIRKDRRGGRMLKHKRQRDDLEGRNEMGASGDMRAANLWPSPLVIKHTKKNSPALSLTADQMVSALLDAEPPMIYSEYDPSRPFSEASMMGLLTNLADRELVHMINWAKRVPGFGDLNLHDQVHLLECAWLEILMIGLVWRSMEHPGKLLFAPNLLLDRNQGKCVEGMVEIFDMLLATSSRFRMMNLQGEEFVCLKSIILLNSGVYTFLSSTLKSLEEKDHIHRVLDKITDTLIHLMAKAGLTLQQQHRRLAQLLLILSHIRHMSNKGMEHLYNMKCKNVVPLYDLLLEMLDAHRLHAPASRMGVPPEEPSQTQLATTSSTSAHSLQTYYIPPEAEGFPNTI

B1: Suppressor of Zeste 12 (SUZ12), endogenous in MOVAS cells, Q80U70 1-741 (protein)
chain: MAPQKHGGGGGGGSGPSAGSGGGGFGGSAAAVAAAASGGKSGGGGCGGGGSYSASSSSAAAAAAAAGAAVLPVKKPKMEHVQADHELFLQAFEKPTQIYRFLRTRNLIAPIFLHRTLTYMSHRNSRTSIKRKTFKVDDMLSKVEKMKGEQESHSLSAHLQLTFTGFFHKNDKPSQNSENEQNSVTLEVLLVKVCHKKRKDVSCPIRQVPTGKKQVPLNPDLNQTKPGNFPSLAVSSNEFEPSNSHMVKSYSLLFRVTRPGRREFNGMINGETNENIDVSEELPARRKRNREDGEKTFVAQMTVFDKNRRLQLLDGEYEVAMQEMEECPISKKRATWETILDGKRLPPFETFSQGPTLQFTLRWTGETNDKSTAPVAKPLATRNSESLHQENKPGSVKPAQTIAVKETLTTELQTRKEKDNSNESRQKLRIFYQFLYNNNTRQQTEARDDLHCPWCTLNCRKLYSLLKHLKLCHSRFIFNYVYHPKGARIDVSINECYDGSYAGNPQDIHRQPGFAFSRNGPVKRTPITHILVCRPKRTKASMSEFLESEDGEVEQQRTYSSGHNRLYFHSDTCLPLRPQEMEVDSEDEKDPEWLREKTITQIEEFSDVNEGEKEVMKLWNLHVMKHGFIADNQMNHACMLFVENYGQKIIKKNLCRNFMLHLVSMHDFNLISIMSIDKAVTKLREMQQKLEKGESATPSNEEIAEEQNGTANGFSETNSKEKALETDGVSGVPKQSKKQKL
B2: KDM4B, endogenous in MOVAS cells (protein, UniProt Q91VY5 1-1086)
chain: MGSEDHSAQNPSCKIMTFRPTMDEFRDFNRYVAYIESQGAHRAGLAKIIPPKEWKPRQTYDDIDDVVIPAPIQQVVTGQSGLFTQYNIQKKAMTVGEYRRLANSEKYCTPRHQDFDDLERKYWKNLTFVSPIYGADISGSLYDDDVAQWNIGNLRTILDMVERECGTIIEGVNTPYLYFGMWKTTFAWHTEDMDLYSINYLHFGEPKSWYAIPPEHGKRLERLAIGFFPGSSQGCDAFLRHKMTLISPIILKKYGIPFSRITQEAGEFMITFPYGYHAGFNHGFNCAESTNFATLRWIDYGKVATQCTCRKDMVKISMDVFVRILQPERYEQWKQGRDLTVLDHTRPTALSSPELSSWSASRTSIKAKLLRRQISVKESRPWRKAEEERRREPTRRPGPASHRRRSQPKKSKPEESRSPGEATAGVSTLDEARGCSRGEAMPEDEEEEELLPSQGHEAEGVEEDGRGKPRPTKARNKKKTPSPSSPPLLSAPPALFPTEEVLRPPPQPKSPGPAMGPMAAEGGPPPTPLNVVPPGAPVEEAEVRPRPIIPMLYVLPRTSSTDGDREHSAHAQLAPMELGPEEENQAQAGDSQGTTPFSKLKVEIKKSRRHPLGRPPTRSPLSVVKQEASSDEEAFLFSGEDDVTDPEALRSLLSLQWKNKAASFQAERKFNAAAALSEPYCAICTLFYPYSQSVQTERDSAVQPPSKSGQRTRPLIPEMCFTSSGENTEPLPANSYVGEDGTSPLISCAHCCLQVHASCYGVRPELAKEGWTCSRCAAHAWTAECCLCNLRGGALQRTTEHRWIHVICAIAVPEVRFLNVIERNPVDVSAIPEQRWKLKCIYCRKRMKRVSGACIQCSYEHCSTSFHVTCAHAAGVLMEPDDWPYVVSITCLKHRASGAGGQLLRTVSLGQIVITKNRNGLYYRCRVIGTTAQTFYEVNFDDGSYSDNLYPESITSRDCLRLGPPPEGELVELRWTDGNLYRARFISMATSLIYQVEFEDGSQLTVKRGDIFTLEEELPKRVRSRLSLSTGTPQEPSFSGDDVKAAKRPRVASVLATTTEDTGRSPEYLSFMESLLQAQGRPGAPF

How the values were obtained:
[1] = target: T1, KDM4B, endogenous in MOVAS cells (mouse (endogenous in MOVAS)), Q91VY5; assay: co-IP; endogenous proteins in MOVAS cell whole-cell lysate, Protein G beads, immunoblotting; settings: remark: other sources report otherwise
T1 chain: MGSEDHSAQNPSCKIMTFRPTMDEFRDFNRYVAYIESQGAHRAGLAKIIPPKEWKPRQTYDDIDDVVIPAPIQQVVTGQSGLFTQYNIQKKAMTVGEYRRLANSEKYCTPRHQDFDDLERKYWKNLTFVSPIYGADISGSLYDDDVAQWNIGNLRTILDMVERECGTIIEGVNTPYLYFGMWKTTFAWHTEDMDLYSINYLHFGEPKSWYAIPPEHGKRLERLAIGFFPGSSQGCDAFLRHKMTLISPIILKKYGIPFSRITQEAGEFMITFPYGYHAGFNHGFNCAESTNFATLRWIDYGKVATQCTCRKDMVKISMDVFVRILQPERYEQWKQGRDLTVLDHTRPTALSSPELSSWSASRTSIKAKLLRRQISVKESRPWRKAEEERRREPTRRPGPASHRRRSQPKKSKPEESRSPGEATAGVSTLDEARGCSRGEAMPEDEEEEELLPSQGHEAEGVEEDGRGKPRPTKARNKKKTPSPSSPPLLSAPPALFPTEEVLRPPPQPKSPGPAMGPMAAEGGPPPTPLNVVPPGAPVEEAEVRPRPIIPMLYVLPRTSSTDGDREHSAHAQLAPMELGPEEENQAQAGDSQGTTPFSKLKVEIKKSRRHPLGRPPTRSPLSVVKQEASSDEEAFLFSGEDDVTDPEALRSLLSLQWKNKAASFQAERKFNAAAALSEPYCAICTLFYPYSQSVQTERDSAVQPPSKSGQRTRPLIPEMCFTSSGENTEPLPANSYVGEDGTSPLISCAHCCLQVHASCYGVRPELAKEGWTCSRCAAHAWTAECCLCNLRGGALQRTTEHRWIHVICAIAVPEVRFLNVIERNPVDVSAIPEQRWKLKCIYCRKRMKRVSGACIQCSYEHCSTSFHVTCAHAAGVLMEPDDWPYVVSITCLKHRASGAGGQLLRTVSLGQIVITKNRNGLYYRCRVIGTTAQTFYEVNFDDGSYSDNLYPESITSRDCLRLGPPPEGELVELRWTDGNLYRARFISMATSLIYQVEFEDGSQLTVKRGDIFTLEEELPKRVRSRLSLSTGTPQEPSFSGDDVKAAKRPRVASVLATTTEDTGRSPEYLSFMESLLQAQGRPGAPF

[2] = target: ERα, endogenous in MOVAS cells (mouse (endogenous in MOVAS)) (UniProt P19785); assay: as above

| Binder | binding [1] | binding [2] |
| --- | --- | --- |
| B1 | binds |  |
| B2 |  | binds |
